# PubChem BioAssay AID504834 (National Center for Advancing Translational Sciences (NCATS), 2011)
# The whole screen tested about 320,000 compounds, of which about 22,000 (6.9%) were called active. Inconclusive means that the source gave no clear call. Such entries were picked first, then a sample of the others. Calls follow the shape of the dose curve; as a rule, active = well fitted inhibition curve with a large enough effect; inconclusive = small, poorly fitted or top-dose-only effect, or another doubt; inactive = no such curve, though single readings can be large or run the other way. Potencies beside an inconclusive call are fits to weak or partial responses and may not hold up.
# Experiment: Primary qHTS for delayed death inhibitors of the malarial parasite plastid, 96 hour incubation
# Conditions: P. falciparum luciferase reporter growth; series mostly up to 28.7 µM; activity change, negative = inhibition: at the top concentration
# Outline: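 Compounds incubated with erythrocytes infected by luciferase-expressing P. falciparum (2% hematocrit, 0.05% parasitemia final) for 96 hours, 37 C in 5% CO2. Growth inhibition scored as decreased luciferase luminescence.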
# % is scaled to controls: 0 for no effect and ±100 for the full control effect; potency is read from the fitted curve at half-maximal effect.
SMILES,Potency,"activity change, negative = inhibition"
COc1ccc(N(CC(=O)N2CCCCC2)S(=O)(=O)c2ccccc2)c(OC)c1,"inconclusive: 0.0415 µM [inhibitor, full curve, poor fit]",–
Cc1cccc(C)c1NC(=O)CNC(=O)c1ccc2ccccc2n1,"inconclusive: 14.7 µM [inhibitor, single point]",–
C/C(=N\NC(=S)NCc1ccccc1)c1ccc(Cl)s1,"inconclusive: 10.4 µM [inhibitor, partial curve]",–
COC(=O)C1CCN(C(=O)/C=C/c2ccccc2)CC1,"inconclusive: 18.5 µM [inhibitor, single point]",–
CCOC(=O)C1=C(C)NC2=C(C(=O)c3ccccc32)C1c1ccc([N+](=O)[O-])o1 (configuration not stated),"inconclusive: 7.38 µM [inhibitor, partial curve]",–
Cc1c(C(=O)N2CCN(c3ccc(F)cc3)CC2)sc2nc(-c3ccccc3)cn12,–,inactive: 21.4%
CC1=C(C(=O)Nc2ccc(C)cn2)C(c2cnn(C)c2)C2=C(CCCC2=O)N1 (configuration not stated),–,inactive: -3.86%
COc1ccc(-c2cc3c(=O)n(CC(=O)N4CCCC4)ncn3n2)cc1,"inconclusive: 13.1 µM [inhibitor, single point]",–
O=S(=O)(c1ccc(NC(=S)NCc2ccc(F)cc2)cc1)N1CCOCC1,"inconclusive: 11.7 µM [inhibitor, single point]",–
Cn1c(COc2ccccc2)nnc1SCC(=O)Nc1ccc(S(N)(=O)=O)cc1,"inconclusive: 11.7 µM [inhibitor, single point]",–
COc1ccc(C(=O)/C=C/c2cc(OC)c(O)c(OC)c2)c(F)c1,"inconclusive: 18.5 µM [inhibitor, single point]",–
CCCCN(Cc1cccs1)S(=O)(=O)c1ccc(-c2ccc(=O)[nH]n2)s1,–,inactive: 23%
O=C(N/N=C/c1cccc2ccccc12)c1cccs1,–,inactive: 3.72%
CC(=O)Nc1ccc2c(CSc3nnc(N)s3)cc(=O)oc2c1,"inconclusive: 14.7 µM [inhibitor, partial curve, poor fit]",–
CCOP(=O)(OCC)c1nc(-c2ccc(Cl)cc2Cl)oc1N1CCOCC1,"inconclusive: 9.28 µM [inhibitor, partial curve, poor fit]",–
N/C(CCS(=O)(=O)c1ccc(Cl)cc1)=N\OC(=O)c1ccccc1C(F)(F)F,active: 9.28 µM,–
Cc1ccc(/C(C#N)=C\c2ccc(N3CCOCC3)o2)cc1,–,inactive: -24.5%
C#CCOCCOCCOCCNc1nc(N2CCN(C(=O)CCCCCCCCCCNC(=O)Cn3cc(C[C@@H](C)O)nn3)CC2)nc(N2CCN(C(=O)CCCCCCCCCCNC(=O)[C@H](CCCN=C(N)N)n3cc(C[C@@H](C)CC)nn3)CC2)n1,active: 1.04 µM,–
CCOC(=O)c1cnn(C)c1NC(=O)c1ccc(Cl)cc1Cl,"inconclusive: 18.5 µM [inhibitor, single point]",–
CCCNC(C)C(=O)Nc1c(C)csc1C(=O)OC (configuration not stated),–,inactive: 3.34%
COc1ccc(S(=O)(=O)n2nc(-c3cc(OC)c(OC)c(OC)c3)cc2N)cc1OC,"inconclusive: 0.0026 µM [inhibitor, full curve, poor fit]",–
CC(C)c1ccc(Nc2nc(Cl)nc(NCc3ccco3)n2)cc1,"inconclusive: 13.1 µM [inhibitor, single point]",–
Cc1nc2ccccc2c(=O)n1/N=C/c1ccccc1O,–,inactive: 17.2%
CCOc1ccccc1OCCn1nc2ccccc2n1,"inconclusive: 20.8 µM [inhibitor, partial curve, poor fit]",–

SMILES,Potency,"activity change, negative = inhibition"
CCN1CCN(CCCNC(=O)c2ccc3c(c2)NC(=O)c2ccccc2S3)CC1,active: 8.28 µM,–
COc1ccc(OC)c(C(=O)NC2CCSc3ccccc32)c1 (configuration not stated),"inconclusive: 11.7 µM [inhibitor, single point]",–
CCOc1ccccc1NC(=O)CSc1nnc(CNC(=O)c2ccccc2F)o1,"inconclusive: 13.1 µM [inhibitor, single point]",–
O=S(=O)(Nc1ccccc1)c1cccc2nsnc12,active: 8.28 µM,–
COc1cc(S(=O)(=O)NCc2ccc(F)cc2)ccc1-n1cnnn1,"inconclusive: 2.62 µM [inhibitor, partial curve]",–
O=C(O)CCN1C(=O)/C(=C\c2ccc(-c3nc4ccccc4s3)o2)SC1=S,–,inactive: 19.1%
CCOc1ccc(-c2ccc(/C=C3/C(=N)N4C=CSC4=NC3=O)o2)c([N+](=O)[O-])c1,"inconclusive: 18.5 µM [inhibitor, single point]",–
CN=C(Nc1ccc(Cl)cc1)c1cccc(C(F)(F)F)c1,–,inactive: 55.1%
CSc1nc2ccccc2n1CC(=O)N1CCCCC1,–,inactive: 29.1%
CCOC(=O)Nc1cc(NC(=O)OCC)c(C)nc1C,–,inactive: 48.1%
O=C(NCCCO)c1nc2ccccc2s1,–,inactive: 2.97%
COC(=O)c1c(NC(=O)CCS(=O)(=O)c2ccccc2)sc2c1CCN(C)C2,"inconclusive: 18.5 µM [inhibitor, single point]",–
CC(=O)Nc1ccc(S(=O)(=O)NC(C)CCc2ccccc2)cc1 (configuration not stated),"inconclusive: 10.4 µM [inhibitor, single point]",–
CCn1cc(C(=O)NC2CCCCCC2)c2cc(OC)c(OC)cc2c1=O,–,inactive: -0.112%
COCCn1c(=NC(=O)c2cc(-c3cccs3)nc3ccccc23)sc2cc(S(N)(=O)=O)ccc21,–,inactive: -15.8%
Cc1cccnc1NC(=O)CCNC(=O)c1ccc(Br)cc1,–,inactive: -15%
COc1ccc(C2(CCN)CC(C)N(C)CC2C)cc1 (configuration not stated),active: 1.65 µM,–
COc1ccc(CN2CCNC(=O)C2CC(=O)NCc2ccc(C)s2)c(OC)c1 (configuration not stated),"inconclusive: 11.7 µM [inhibitor, single point]",–
Cc1cc(Cl)cc(Cl)c1OCCCCN(C)C,–,inactive: 7.87%
CCc1nnc(NC(=O)c2ccc(N(C)S(=O)(=O)c3ccccc3)cc2)s1,"inconclusive: 18.5 µM [inhibitor, single point]",–
COc1ccc(-c2n[nH]c(C)c2-c2ccc(Cl)cc2)c(O)c1OC,"inconclusive: 18.5 µM [inhibitor, single point]",–
NNC(=O)c1ccc(COc2ccc3ccccc3c2)o1,"inconclusive: 18.5 µM [inhibitor, single point]",–
CCOC(=O)CNC(=O)C1CCN(S(=O)(=O)c2ccc(-c3nn[nH]n3)cc2)CC1,–,inactive: 56.9%
COc1ccc(C)cc1NC(=O)CN1C(=O)c2ccccc2S1(=O)=O,"inconclusive: 10.4 µM [inhibitor, partial curve, poor fit]",–

# Full records from above.
# O=C(O)CCN1C(=O)/C(=C\c2ccc(-c3nc4ccccc4s3)o2)SC1=S in the list: activity change, negative = inhibition: inactive: 19.1%
# NNC(=O)c1ccc(COc2ccc3ccccc3c2)o1 in the list: Potency: inconclusive: 18.5 µM [inhibitor, single point]
# C#CCOCCOCCOCCNc1nc(N2CCN(C(=O)CCCCCCCCCCNC(=O)Cn3cc(C[C@@H](C)O)nn3)CC2)nc(N2CCN(C(=O)CCCCCCCCCCNC(=O)[C@H](CCCN=C(N)N)n3cc(C[C@@H](C)CC)nn3)CC2)n1 in the list: Potency: active: 1.04 µM

# (more compounds)

SMILES,Potency,"activity change, negative = inhibition"
CSc1nnc(Nc2ccccc2C)s1,active: 9.28 µM,–
C/C(=N\NC(=O)c1cccc(Br)c1)c1ccc(Br)cc1,–,inactive: 65.6%
CC(C)NC(=O)CSc1nc(Cc2ccccc2)nc2ccccc12,"inconclusive: 9.28 µM [inhibitor, partial curve, poor fit]",–
CCc1ccc(NC(=O)CSc2nc(NS(=O)(=O)c3ccccc3)cc(=O)[nH]2)cc1,active: 4.15 µM,–
Cn1nc(C(F)(F)F)c(-c2ccccc2)c1NC(=O)c1cccnc1,"inconclusive: 18.5 µM [inhibitor, single point]",–
CC(=O)n1cc(N(C(=O)CCl)c2ccc([N+](=O)[O-])cc2)c2ccccc21,"inconclusive: 11.7 µM [inhibitor, single point]",–
COC(=O)c1ccc(C(=O)OC)c(NC(=S)N2CCCC2)c1,"inconclusive: 0.0738 µM [inhibitor, full curve, poor fit]",–
COCCN(C(=O)/C=C/c1ccccc1)c1nnc(-c2cccnc2)s1,–,inactive: -1.36%
CN1CCN(CC(=O)Nc2ccc([N+](=O)[O-])cc2Br)CC1,–,inactive: 1.3%
COc1cccc(NC(=S)N2c3ccccc3CC2C)c1 (configuration not stated),"inconclusive: 18.5 µM [inhibitor, single point]",–
CCOC(=O)C1CCN(C(c2ccc(OC)c(OC)c2)c2sc3nc(C)nn3c2O)CC1 (configuration not stated),"inconclusive: 5.86 µM [inhibitor, partial curve, poor fit]",–
CC1=NN(C(=O)COc2ccccc2)C(O)(c2cccnc2)C1 (configuration not stated),"inconclusive: 20.8 µM [inhibitor, partial curve, poor fit]",–
COCCN(C(=O)COC(=O)c1ccccc1Nc1ccccc1)c1c(N)n(Cc2ccccc2)c(=O)[nH]c1=O,active: 9.28 µM,–
CCN1C(=O)[C@H]2[C@@H](c3ccc(-c4ccc(Cl)c(Cl)c4)cc3)N[C@@](Cc3ccccc3)(C(=O)OC)[C@H]2C1=O,"inconclusive: 1.65 µM [inhibitor, full curve]",–
CCC(NC(=O)c1[nH]c(C)c(C(C)=O)c1C)c1ccc(Br)cc1 (configuration not stated),"inconclusive: 10.4 µM [inhibitor, single point]",–
Cc1ccc(Cc2c(C)nc3nc(SCC(=O)NCc4ccco4)nn3c2C)cc1,–,inactive: -13%
COc1ccc(NC(=O)N2CCN(c3cccc(C(F)(F)F)c3)CC2)cc1,–,inactive: 1.65% [at 5.75 µM]
Cc1cc(C)cc(NC(=O)C(=O)NCCc2c[nH]c3ccccc23)c1,–,inactive: 31.4%
OC[C@@H](O)[C@H]1O[C@@H]2OC(C(Cl)(Cl)Cl)O[C@H]2[C@H]1O (some centres not stated),–,inactive: -4.67%
Cn1c(SCC(=O)N/N=C/c2ccc([N+](=O)[O-])s2)nnc1-c1ccccc1,"inconclusive: 2.33 µM [inhibitor, full curve, poor fit]",–
CO/N=C/NC(=O)C1=NOC(CNc2ncc(C(F)(F)F)cc2Cl)C1 (configuration not stated),–,inactive: 4.41%
COc1cc(C(C(=O)NC(C)(C)C)N(Cc2ccccc2)C(=O)c2cnccn2)cc(OC)c1OC (configuration not stated),"inconclusive: 18.5 µM [inhibitor, single point]",–
COc1cccc(OCCCCCN2CCOCC2)c1,"inconclusive: 18.5 µM [inhibitor, single point]",–
CCN(Cc1ccccc1)S(=O)(=O)c1ccc(S(=O)(=O)N(Cc2cccc(OC)c2)CC2CCCO2)cc1 (configuration not stated),active: 5.22 µM,–
